Data reported in patent publication US9896659B2, “Methods, kits, and compositions for stem cell self-renewal” (STOWERS INSTITUTE FOR MEDICAL RESEARCH, priority 2011, dated 2018).
Some results were stated once for a whole list of compounds, not compound by compound.

Test system: lethally irradiated recipients
Test: Serial transplantation of cultured MNCs without rescue/competitor cells
Assay type: in vivo, mouse
Details: cultured product of MNCs containing 5 LSK Flk2^− cells, no rescue/competitor cells
Method: FIGS. 27A-C show ex vivo expansion of normal, long-term repopulating HSC. MNCs containing a known quantity of LSK Flk2^− cells were cultured for 14 days with and without CHIR99021. The cultured progeny of MNCs containing a pre-culture dosage of 0.1, 0.3 or 1.0 LSK Flk2^− cells were transplanted into lethally irradiated recipients along with 1×10^5 rescue/competitor cells (n=10 for each of 6 groups). Peripheral blood was analyzed at 16 weeks post-transplant and competitive repopulating unit (CRU) frequency was determined using L-Calc software (Stem Cell Technologies, Inc.) based on Poisson statistics (Zhang, C. C. & Lodish, H. F. Murine hematopoietic stem cells change their surface phenotype during ex vivo expansion. Blood, Vol. 105, pages 4314-4320 (2005); Miller, C. L. & Eaves, C. J. Expansion in vitro of adult murine hematopoietic stem cells with transplantable lympho-myeloid reconstituting ability. Proceedings of the National Academy of Sciences of the United States of America, Vol. 94, pages 13648-13653 (1997)). […] Peripheral blood was analyzed for percent donor repopulation at 16 weeks post-1°, 2°, and 3° transplant (upper panels) and percent mature donor-derived B, T and myeloid cells (lower panels). […]

`Cc1c[nH]c(-c2cnc(NCCNc3ccc(C#N)cn3)nc2-c2ccc(Cl)cc2Cl)n1` [CHIR99021] was tested, and the “Donor engraftment in primary recipients” value was greater than 90%.
